PubChem BioAssay AID504791 – Drosophila RNAi Screening Center – 2011
The screen tested about 23,000 reagents; this is an unselected part of those that have a named target and a result. Over the whole deposit, 199 (0.86%) were called active. 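Plate-scaled ratios behind the calls are not deposited; printed light signals are raw; many rows marked increased or decreased are still called inactive.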 A plus sign joins genes that one reagent is predicted to hit.

Test: 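Genes of the fly required for silencing by miRNA, siRNA or endo-siRNA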 (primary screen)
Cell system: Drosophila S2-derived reporter cells
Reagents: long dsRNA against Drosophila genes, about 150-250 ng dsRNA per well (siRNA assay); about 80-120 ng (miRNA assay)
Timing: about 5 days (siRNA assay); about 4 days (miRNA assay)
Treatment: copper sulfate induction of reporters: 25 µM (siRNA assay); 200 mM stated (miRNA assay), 1-2 days before reading
Measurement: 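Per-well ratio of Renilla over firefly light, expressed relative to that plate's average ratio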
Direction: siRNA reporter hit score: higher = 3 marks a strong hit with raised ratio; -3 a strong hit with lowered ratio
Call rule: 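a well was a first-pass pick when its plate-scaled ratio rose above 1.5 (siRNA assay) or 1.6 (miRNA assay), or dropped below 0.6; a gene counted only if two separate dsRNAs agreed on retest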

| predicted target | dsRNA | siRNA reporter hit score | stable siRNA reporter change | miRNA reporter change | stable assay Renilla, run 1 (luminescence) | stable assay firefly, run 1 (luminescence) | Call |
| --- | --- | --- | --- | --- | --- | --- | --- |
| CG11438 | DRSC11660 | – | – | – | 7867 | 4.37e5 | inactive |
| Rad23 | DRSC17167 | – | – | – | 8450 | 4.62e5 | inactive |
| CG13078 | DRSC02182 | – | – | – | 7394 | 3.48e5 | inactive |
| CG13465 | DRSC10011 | – | – | – | 6347 | 3.32e5 | inactive |
| Pomp | DRSC03201 | -3 | – | – | 7482 | 1.09e6 | inactive |
| Pomp | DRSC27581 | – | – | reporter ratio raised past the hit cutoff | – | – | inactive |
| lt | DRSC03759 | – | – | – | 6694 | 4.79e5 | inactive |
| CG13154 | DRSC06279 | – | – | – | 8076 | 3.44e5 | inactive |
| conv | DRSC07213 | – | – | – | 6691 | 4.76e5 | inactive |
| CG31538 | DRSC12059 | – | – | – | 4523 | 3.42e5 | inactive |
| VhaSFD | DRSC03471 | – | – | – | 1.37e5 | 2.07e6 | inactive |
| Smyd4-2 | DRSC10126 | – | – | – | 6516 | 4.17e5 | inactive |
| Pgant8 | DRSC10801 | – | – | – | 7849 | 3.62e5 | inactive |
| Elovl7 | DRSC15452 | – | – | – | 7386 | 3.90e5 | inactive |
| Elovl7 | DRSC21570 | – | – | – | 9407 | 4.44e5 | inactive |
| CG10903 | DRSC14281 | – | – | – | 6370 | 4.31e5 | inactive |
| Ald1 | DRSC14109 | – | – | – | 5878 | 3.22e5 | inactive |
| ppk10 | DRSC01123 | – | – | – | 6016 | 5.79e5 | inactive |
| CG13984 | DRSC02316 | – | – | – | 7282 | 4.54e5 | inactive |
| CG15412 | DRSC00427 | – | – | – | 7943 | 4.63e5 | inactive |
| Ms | DRSC16041 | – | – | – | 9080 | 3.79e5 | inactive |
| Trhn | DRSC08621 | – | – | – | 11454 | 5.35e5 | inactive |
| CG13807 | DRSC08342 | – | – | – | 6458 | 3.03e5 | inactive |
| CG31115 | DRSC13692 | – | – | – | 5667 | 3.20e5 | inactive |
| Cpr57A + Obp57d | DRSC06708 | – | – | – | 10935 | 4.11e5 | inactive |
| Cpr57A + Obp57d | DRSC22719 | – | – | – | 3983 | 3.80e5 | inactive |
| CG5897 | DRSC10555 | – | – | – | 6863 | 4.58e5 | inactive |
| CG13658 | DRSC14659 | – | – | – | 6842 | 3.90e5 | inactive |
| PIG-O | DRSC06123 | – | – | – | 9161 | 2.50e5 | inactive |
| Kr-h2 | DRSC03356 | – | – | – | 7331 | 4.42e5 | inactive |
| mei-W68 | DRSC07649 | – | – | – | 7419 | 4.22e5 | inactive |
| CG32079 | DRSC22636 | – | – | – | 3104 | 3.35e5 | inactive |
| Sfxn2 | DRSC10718 | – | – | – | 6883 | 4.26e5 | inactive |
| mRpS2 | DRSC00550 | – | – | – | 11051 | 7.52e5 | inactive |
| PsGEF (retired record) | DRSC18600 | – | – | – | 6242 | 4.25e5 | inactive |
| PsGEF (retired record) | DRSC18601 | – | – | – | 4547 | 2.86e5 | inactive |
| CG15638 | DRSC01875 | – | – | – | 6446 | 3.03e5 | inactive |
| CG5274 | DRSC11774 | – | – | – | 12707 | 3.32e5 | inactive |
| Pss | DRSC11757 | – | – | – | 6754 | 4.47e5 | inactive |
| CG5466 | DRSC15808 | – | reporter ratio raised past the hit cutoff | – | 5743 | 1.75e5 | inactive |
| CG5466 | DRSC23002 | – | – | – | 2827 | 2.37e5 | inactive |
| mRpL45 | DRSC16146 | – | – | – | 5838 | 3.81e5 | inactive |
| Pph13 | DRSC00775 | – | – | – | 19706 | 2.14e5 | inactive |
| Pph13 | DRSC23162 | – | – | – | 5163 | 4.47e5 | inactive |
| CG9698 | DRSC16539 | – | – | – | 6676 | 4.55e5 | inactive |
| sac | DRSC12237 | – | – | – | 7167 | 3.74e5 | inactive |
| CG32638 | DRSC18968 | – | – | – | 5631 | 4.73e5 | inactive |
| CG4338 | DRSC15564 | – | – | – | 7702 | 4.57e5 | inactive |
| CG18327 | DRSC06722 | – | – | – | 5875 | 3.60e5 | inactive |
| CG10993 | DRSC19362 | – | – | – | 5310 | 4.87e5 | inactive |
| CG13155 | DRSC06280 | – | – | – | 5343 | 2.86e5 | inactive |
| CG12054 | DRSC14467 | 3 | – | – | 6088 | 2.26e5 | inactive |
| CG12054 | DRSC23137 | – | – | – | 5232 | 3.24e5 | inactive |
| dpr4 | DRSC14531 | – | – | – | 6948 | 4.94e5 | inactive |
| dpr4 | DRSC14929 | – | – | – | 6991 | 3.91e5 | inactive |
| betaTub97EF | DRSC15666 | – | – | – | 6443 | 4.43e5 | inactive |
| betaTub97EF | DRSC15667 | – | – | – | 5875 | 4.24e5 | inactive |
| betaTub97EF | DRSC15668 | – | – | – | 6278 | 4.12e5 | inactive |
| CG15160 | DRSC02461 | – | – | – | 6134 | 5.40e5 | inactive |
| D12 | DRSC03311 | – | – | – | 58793 | 1.03e6 | inactive |
| CG13784 | DRSC00974 | – | – | – | 4879 | 5.15e5 | inactive |
| CG13784 | DRSC02287 | – | – | – | 7601 | 3.29e5 | inactive |
| Rtnl2 | DRSC12609 | – | – | – | 6963 | 4.64e5 | inactive |
| Rtnl2 | DRSC21655 | – | – | – | 8142 | 4.43e5 | inactive |
| ATPsynepsilonL | DRSC14548 | – | – | – | 5260 | 4.02e5 | inactive |
| CG32391 | DRSC08865 | – | – | – | 4804 | 3.90e5 | inactive |
| CG6870 | DRSC02998 | – | – | – | 7006 | 3.55e5 | inactive |
| PGRP-LB | DRSC14926 | – | – | – | 7454 | 5.01e5 | inactive |
| CG32563 | DRSC19934 | – | – | – | 5778 | 4.06e5 | inactive |
| magu | DRSC06832 | – | – | – | 7988 | 4.05e5 | inactive |
| Usp7 | DRSC18909 | – | – | – | 6319 | 6.08e5 | inactive |
| Usp7 | DRSC19604 | – | – | – | 3947 | 3.67e5 | inactive |
| CG15539 | DRSC15075 | – | – | – | 6332 | 4.10e5 | inactive |
| PGS1 | DRSC16304 | – | – | – | 7194 | 3.87e5 | inactive |
| aspr | DRSC20689 | – | – | – | 5502 | 3.91e5 | inactive |
| aspr | DRSC20690 | – | – | reporter ratio raised past the hit cutoff | 6539 | 4.20e5 | inactive |
| CG16713 | DRSC00477 | – | – | – | 6947 | 4.47e5 | inactive |
| CG5080 | DRSC00677 | – | – | – | 32134 | 1.57e5 | inactive |
| Nrx-1 | DRSC16184 | – | – | reporter ratio lowered past the hit cutoff | 7198 | 3.19e5 | active |
| CR12798 | DRSC21078 | – | – | – | 6086 | 5.55e5 | inactive |
| CG42542 | DRSC15549 | – | – | – | 6686 | 3.93e5 | inactive |
| CG42542 | DRSC22264 | – | – | – | 10106 | 5.35e5 | inactive |
| CG7379 | DRSC16237 | – | – | – | 4276 | 4.51e5 | inactive |
| wdn | DRSC17095 | – | – | – | 8947 | 4.74e5 | inactive |
| CG8646 | DRSC07230 | – | – | – | 5704 | 2.73e5 | inactive |
| Ndc1 | DRSC15895 | – | – | – | 12509 | 3.54e5 | inactive |
| Mi-2 + Su(Tpl) | DRSC09640 | – | – | – | 4731 | 3.36e5 | inactive |
| mRpL22 | DRSC19915 | – | – | – | 6099 | 4.15e5 | inactive |
| VhaAC39-1 | DRSC18242 | – | – | – | 7431 | 5.44e5 | inactive |
| CG9775 | DRSC12330 | – | – | – | 9180 | 4.61e5 | inactive |
| CG9775 | DRSC22667 | – | – | – | 3807 | 3.90e5 | inactive |
| CG10462 | DRSC02058 | – | – | – | 1.96e5 | 2.36e6 | inactive |
| CG10970 | DRSC17772 | – | – | – | 7147 | 3.84e5 | inactive |
| CG12483 | DRSC08278 | – | – | – | 6612 | 5.28e5 | inactive |
| kuz | DRSC03555 | – | – | – | 8738 | 3.75e5 | inactive |
| CG11674 | DRSC19414 | – | – | – | 7894 | 5.68e5 | inactive |
| CG33964 + CG13175 | DRSC06300 | – | – | – | 6411 | 3.67e5 | inactive |
| CG33964 + CG13175 | DRSC06301 | – | – | – | 6172 | 3.43e5 | inactive |
| CG33964 + CG13175 | DRSC07184 | – | – | – | 6334 | 4.01e5 | inactive |
| Syx5 | DRSC03432 | – | – | – | 7266 | 1.07e6 | inactive |
| Dp | DRSC07402 | – | reporter ratio lowered past the hit cutoff | reporter ratio lowered past the hit cutoff | 5836 | 6.34e5 | active |
| He + NimB5 | DRSC22876 | – | – | – | 4428 | 3.97e5 | inactive |
| a5 | DRSC00798 | – | – | – | 8110 | 4.85e5 | inactive |
| Cyt-b5 | DRSC07392 | – | – | – | 7875 | 4.45e5 | inactive |
| CG14079 | DRSC10083 | – | – | – | 6431 | 3.57e5 | inactive |
| CG34296 | DRSC13961 | – | – | – | 7755 | 4.63e5 | inactive |

9 entries from above, showing only “stable assay Renilla, run 1 (luminescence)”.
CG10462 [DRSC02058]	1.96e5
CG10970 [DRSC17772]	7147
CG12483 [DRSC08278]	6612
kuz [DRSC03555]	8738
CG11674 [DRSC19414]	7894
CG33964 + CG13175 [DRSC06300]	6411
CG33964 + CG13175 [DRSC06301]	6172
CG33964 + CG13175 [DRSC07184]	6334
Syx5 [DRSC03432]	7266
